# Results as given in PMC10439204.
# Amino acid sequences for entries named in this document (tags omitted).
# UniProt Q6GQQ9: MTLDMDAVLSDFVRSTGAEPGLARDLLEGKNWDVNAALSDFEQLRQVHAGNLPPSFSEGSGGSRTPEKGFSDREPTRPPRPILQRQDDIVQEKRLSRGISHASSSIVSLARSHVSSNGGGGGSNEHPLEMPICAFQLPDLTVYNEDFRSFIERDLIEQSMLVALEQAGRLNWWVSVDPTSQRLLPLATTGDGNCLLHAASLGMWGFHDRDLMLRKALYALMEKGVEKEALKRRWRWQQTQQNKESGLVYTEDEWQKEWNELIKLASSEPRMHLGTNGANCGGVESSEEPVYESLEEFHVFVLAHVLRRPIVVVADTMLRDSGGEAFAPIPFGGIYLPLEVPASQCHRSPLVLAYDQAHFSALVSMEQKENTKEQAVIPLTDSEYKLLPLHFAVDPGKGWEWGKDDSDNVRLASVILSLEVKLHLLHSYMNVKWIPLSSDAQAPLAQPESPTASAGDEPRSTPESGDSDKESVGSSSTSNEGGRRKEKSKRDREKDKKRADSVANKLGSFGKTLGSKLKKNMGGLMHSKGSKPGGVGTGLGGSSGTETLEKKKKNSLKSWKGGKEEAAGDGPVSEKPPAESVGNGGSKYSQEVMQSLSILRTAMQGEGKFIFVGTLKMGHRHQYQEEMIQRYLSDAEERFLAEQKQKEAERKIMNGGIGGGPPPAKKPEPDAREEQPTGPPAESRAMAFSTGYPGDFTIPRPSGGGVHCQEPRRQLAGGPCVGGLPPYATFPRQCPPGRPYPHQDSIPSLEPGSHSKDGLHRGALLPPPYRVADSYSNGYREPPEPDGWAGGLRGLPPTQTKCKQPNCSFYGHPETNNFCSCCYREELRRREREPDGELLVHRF
# B1: CTCF (protein, UniProt P49711 1-727)
# chain: MEGDAVEAIVEESETFIKGKERKTYQRRREGGQEEDACHLPQNQTDGGEVVQDVNSSVQMVMMEQLDPTLLQMKTEVMEGTVAPEAEAAVDDTQIITLQVVNMEEQPINIGELQLVQVPVPVTVPVATTSVEELQGAYENEVSKEGLAESEPMICHTLPLPEGFQVVKVGANGEVETLEQGELPPQEDPSWQKDPDYQPPAKKTKKTKKSKLRYTEEGKDVDVSVYDFEEEQQEGLLSEVNAEKVVGNMKPPKPTKIKKKGVKKTFQCELCSYTCPRRSNLDRHMKSHTDERPHKCHLCGRAFRTVTLLRNHLNTHTGTRPHKCPDCDMAFVTSGELVRHRRYKHTHEKPFKCSMCDYASVEVSKLKRHIRSHTGERPFQCSLCSYASRDTYKLKRHMRTHSGEKPYECYICHARFTQSGTMKMHILQKHTENVAKFHCPHCDTVIARKSDLGVHLRKQHSYIEQGKKCRYCDAVFHERYALIQHQKSHKNEKRFKCDQCDYACRQERHMIMHKRTHTGEKPYACSHCDKTFRQKQLLDMHFKRYHDPNFVPAAFVCSKCGKTFTRRNTMARHADNCAGPDGVEGENGGETKKSKRGRKRKMRSKKEDSSDSENAEPDLDDNEDEEEPAVEIEPEPEPQPVTPAPPPAKKRRGRPPGRTNQPKQNQPTAIIQVEDQNTGAIENIIVEVKKEPDAEPAEGEEEEAQPAATDAPNGDLTPEMILSMMDR
# Molecular target: Cellular zinc finger anti-NF-kappa-B protein (Cezanne) (human (endogenous in PC9 and Hek 293T)) (UniProt Q6GQQ9)
# Assay: affinity purification with mass spectrometry; Hek 293T cell lysate; IP with anti-Cezanne and protein G Plus-Agarose at 4 °C overnight, SDS-PAGE, stained band sent for LC-MS/MS
binder,measurement,value
B1,binding,binds

# These are yes or no findings as the source states them, for the method shown. Binding seen in cells or lysates may run through a third protein. A yes stands for co-enrichment or nearness to the bait. Other partners may have been found.
